No constants are given. Whether binding was seen depends on the method and setting. Some results given as binding are weak or reduced against the parent protein; the word gives no strength.
Biological target: T1, CXCL14-TMP-Cub-GAL4 bait (C-X-C motif chemokine ligand 14 anchored to the yeast membrane) (UniProt Q9WUQ5)
T1 sequence: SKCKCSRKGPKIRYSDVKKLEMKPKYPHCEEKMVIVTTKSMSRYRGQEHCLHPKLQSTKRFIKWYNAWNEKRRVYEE
Test: two-hybrid; MALAR-Y2H (membrane-anchored, split-ubiquitin Cub-GAL4/NubG); GoldY2H bait cells mated with Y187 prey cells; diploids on SD/Leu-Trp-Ade-His- plates with α-X-gal and 15 mM 3-AT, growth after 72 h; β-Gal assay of diploid cells

Sequences of proteins named here, by UniProt entry; tags and fusion partners are left off.
UniProt P70658: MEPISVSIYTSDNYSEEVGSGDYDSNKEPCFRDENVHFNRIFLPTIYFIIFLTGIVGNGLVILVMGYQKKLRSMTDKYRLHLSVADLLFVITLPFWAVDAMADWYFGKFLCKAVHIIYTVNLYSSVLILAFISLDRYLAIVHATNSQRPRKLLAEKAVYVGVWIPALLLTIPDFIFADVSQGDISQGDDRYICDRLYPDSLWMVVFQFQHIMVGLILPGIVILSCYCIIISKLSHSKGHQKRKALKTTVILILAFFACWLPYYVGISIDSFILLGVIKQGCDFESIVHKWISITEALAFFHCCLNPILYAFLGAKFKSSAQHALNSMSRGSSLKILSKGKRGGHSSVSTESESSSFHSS
UniProt P56485: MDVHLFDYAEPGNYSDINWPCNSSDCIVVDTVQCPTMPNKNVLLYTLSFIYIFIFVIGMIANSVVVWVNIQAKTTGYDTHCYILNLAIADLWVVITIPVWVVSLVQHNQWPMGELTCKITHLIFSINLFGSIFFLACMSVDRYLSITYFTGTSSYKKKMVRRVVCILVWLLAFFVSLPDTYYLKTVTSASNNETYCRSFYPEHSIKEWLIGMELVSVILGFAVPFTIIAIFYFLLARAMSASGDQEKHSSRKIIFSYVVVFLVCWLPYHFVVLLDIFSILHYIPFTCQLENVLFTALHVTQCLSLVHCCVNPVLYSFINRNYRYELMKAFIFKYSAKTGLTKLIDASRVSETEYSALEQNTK

Substance | binding
OST1-CXCR4-NubG prey (mouse CXC motif receptor 4) (from UniProt P70658 1-359) | binds
OST1-CXCR7-NubG prey (mouse CXC motif receptor 7) (from UniProt P56485 1-362) | binds
